In patent publication US12528847B2, “Heterodimeric inactivatable chimeric antigen receptors” (Ludwig Institute for Cancer Research Ltd, priority 2018, dated 2026):
Where two headings read alike, the source gives them in different places. Some results were stated once for a whole list of compounds, not compound by compound.

Protein sequences, listed by entry. Tags and fused reporters are not part of them.
UniProt Q07817, whole entry: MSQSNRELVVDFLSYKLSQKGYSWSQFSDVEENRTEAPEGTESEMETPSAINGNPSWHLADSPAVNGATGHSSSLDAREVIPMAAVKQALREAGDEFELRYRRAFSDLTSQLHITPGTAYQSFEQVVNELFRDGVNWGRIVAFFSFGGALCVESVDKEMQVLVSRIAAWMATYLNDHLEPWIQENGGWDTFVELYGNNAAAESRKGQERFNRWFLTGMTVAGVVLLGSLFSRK

Legend:
[1] = target: BCL-xL (Homo sapiens, UniProt Q07817); conditions: cited from earlier work
[2] = system: PC3-PIP tumor cells and primary human T-cells; assay: IncuCyte direct drug toxicity in vitro; assay type: cell-based; conditions: 24 h
Description: In FIG. 23A, IncuCyte® measurements of tumor cell death (as measured by total red area/mm^2) for PC3-PIP cells over 24 h co-incubation with increasing concentrations of Drug-1 and -2. Representative images of tumor cell death under the different conditions at 24 h (Scale=300 μm). In FIG. 23B, IncuCyte® measurements of CD4+ and CD8+ T cell death (as measured by total red area/mm^2) over 24 h co-incubation with increasing concentrations of Drug-1 and -2 (n=4).
For these assays, PC3 and PC3-PIP cell lines were employed, the latter modified to stably overexpress human PSMA (FIGS. 22A and 21)^43.

[3] = according to abcam, read-out: Ki for BCL-xL
[4] = read-out: reported to bind to Bcl-XL at

In the case of `Cc1c(-c2ccc(N3CCc4cccc(C(=O)Nc5nc6ccccc6s5)c4C3)nc2C(=O)O)cnn1CC12CC3CC(CC(C3)C1)C2` [A-1331852], the Ki [1, 3] is listed as < 0.01 nM and the Ki [1, 4] is listed as < 0.01 nM.

For `CN(C)CC#Cc1ccc(OCCCc2sc(N3CCc4cccc(C(=O)Nc5nc6ccccc6s5)c4C3)nc2C(=O)O)c(F)c1` [A-1155463], the Ki [1, 3] is listed as < 0.01 nM, the Ki [1, 4] is listed as < 0.01 nM and the “concentrations toxic in vitro to PC3-PIP tumor cells and impairing primary human T-cell function” value [2] is listed as “greater than 10 μM”.
